Data published in patent US11896706B2, “Composition for preventing hair loss or promoting hair growth, comprising, as active ingredient, mixed extract of cucumber, eggplant and snail extracts as active ingredient” (OGADAL INC., priority 2020, dated 2024).
For at least one compound, name, drawing or mass did not settle the structure.

What was measured:
[1] = system: keratinocyte growth factor (KGF); assay: RT-PCR expression of hair-related gene KGF in dermal papilla cells; type: cell-based; details: 1 μg/mL minoxidil
Experimental: (§1) RT-PCR (reverse transcription polymerase chain reaction) was conducted in order to investigate the effect on the expression of hair-related genes, insulin-like growth factor 1 (IGF-1), hepatocyte growth factor (HGF) and keratinocyte growth factor (KGF). Dermal papilla cells were seeded onto a 100-mm cell culture dish at a density of 80% and then cultured for 24 hours at 37° C. in a 5% CO2 incubator. DMEM (Dulbecco's modified Eagle's medium, BRL, USA) containing 10% bovine serum was used as a medium. After adding 100 μg/mL of a sample (Examples 1-1, 1-2, 1-3 and 1-4; Comparative Examples 1-1, 1-2 and 1-3; Examples 2-1, 2-2 and 2-3) or 1 μg/mL minoxidil as a positive control group, the cells were cultured for 18 hours and RNA was isolated by adding 1 mL of Trizol (Invitrogen, USA) according to the Promega's method. After quantifying RNA at 260 nm using a UV detector, RT-PCR was conducted. The RT-PCR was conducted using a RT-PCR kit (All-in-one RT-PCR kit, SuperBio, Korea) under the condition of 40 cycles of reverse transcription at 50° C. for 30 minutes followed by inactivation of reverse transcriptase at 96° C. for 3 minutes, 94° C. for 30 seconds, 58° C. for 30 seconds and 72° C. for 1 minute. The result was represented as percentage (%) of expression relative to the negative control group (Table 3).

[2] = system: hepatocyte growth factor (HGF); assay: RT-PCR expression of hair-related gene HGF in dermal papilla cells; type: cell-based; details: 1 μg/mL minoxidil
Experimental: as §1

[3] = system: C57BL/6 mice depilated on the back; assay: Animal experiment for hair growth-promoting effect in depilated mice; type: in vivo, mouse; details: day 16, minoxidil 5% administration group
Experimental: The hair growth-promoting effect of the composition of the present disclosure was investigated using C57BL/6 mice. 49- to 51-day-old C57BL/6N mice, in the second […], were depilated completely on the back using wax. While applying 0.2 mL of Example 2-1 or 2-3 at a solid content of 1 wt % or 20 wt %, or 5 wt % minoxidil as a positive control group, diluted in water, once a day for 16 days, hair-growing effect was monitored. Distilled water was used as a negative control group. The hair growth index with time was evaluated by the 3-point scale (see Table 4).

[4] = system: insulin-like growth factor 1 (IGF-1); assay: RT-PCR expression of hair-related gene IGF-1 in dermal papilla cells; type: cell-based; details: 1 μg/mL minoxidil
Experimental: as §1

SMILES: Nc1cc(N2CCCCC2)nc(N)[n+]1[O-] [Minoxidil, minoxidil]
- Expression level of KGF as compared to the negative control group [1]: significantly increased
- Expression level of HMF (HGF) as compared to the negative control group [2]: significantly increased
- Hair growth observation [3]: showed hair growth on the back, but the hair length was relatively short as compared to other groups
- Expression level of IGF-1 as compared to the negative control group [4]: significantly increased
